Test results: PubChem BioAssay AID210 (DTP/NCI, 2004)
The list does not hold the whole screen: it gathers tests that were run many times, whatever their T/C, doses with no T/C, and many T/C values between a quarter and a half above the control. Other doses and runs of a compound stand elsewhere. T/C: endpoint of the treated group in % of that of the vehicle group. Some doses have a count of surviving animals in place of a T/C: the source holds a T/C of zero for them, seemingly a mark for toxic or unscored doses. Some doses without a T/C left all or most animals alive at the check, yet need not have been tolerated: survival well below the control is almost never listed, so the zero probably covers shortened survival too. Survivors were counted at the toxicity check, usually on the fifth day, unless a day is given; later deaths do not show. Schedules are NCI's codes, taken here to give the interval after Q, in days (D) or hours (H), and the number of doses after X. Some doses were run more than once; their values stand side by side, smallest first. Brackets with × say how often a value occurs here. For survival time, this PubChem deposit counts one and a half times the control or more as active, and values a quarter to a half above the control carry no call in these data; other NCI protocols may use other cut-offs. Some T/C values are followed by the survivors on the day toxicity was checked, most often the fifth; without a count, all were alive then.

Test system: CD2F1 mice, ip Colon 26 adenocarcinoma, median survival T/C
Assay: NCI In Vivo Anticancer Drug Screen. Data for tumor model Colon 26 Adenocarcinoma (intraperitoneal) in CD2F1 (CDF1) mice
Conditions: T/C endpoint: median survival time, higher T/C = longer survival
Procedure: The antitumor activity of compounds was measured in mice bearing transplantable tumors. Survival or tumor size were measured and the results are expressed as the measurement made in the treated group (T) divided by the measurement made in the vehicle treated control group (C). The tumor model used in this assay is Colon 26 Adenocarcinoma (intraperitoneal) in CD2F1 (CDF1) mice

[1] = dose: 20.0 mg/kg/injection, schedule: Q04DX003 (ip), vehicle: saline
[2] = dose: 40.0 mg/kg/injection, schedule: Q04DX003 (ip), vehicle: saline

N[C@@H](Cc1ccc(N(CCCl)CCCl)cc1)C(=O)O
T/C (dose: 0.63 mg/kg/injection, schedule: Q04DX003 (ip), vehicle: saline): 139 % of control | T/C (dose: 2.5 mg/kg/injection, schedule: Q04DX003 (ip), vehicle: saline, evaluated on day 60): 300 and 342 % of control | T/C (dose: 2.5 mg/kg/injection, schedule: Q04DX003 (ip), vehicle: saline, evaluated on day 70): 173 (2×) and 230 % of control | T/C (dose: 5.0 mg/kg/injection, schedule: Q04DX003 (ip), vehicle: saline, evaluated on day 60): 341 and 344 % of control | T/C (dose: 5.0 mg/kg/injection, schedule: Q04DX003 (ip), vehicle: saline, evaluated on day 70): 192, 214, 318 % of control | T/C (dose: 10.0 mg/kg/injection, schedule: Q04DX003 (ip), vehicle: saline, evaluated on day 60): 340 % of control | T/C (dose: 10.0 mg/kg/injection, schedule: Q04DX003 (ip), vehicle: saline, evaluated on day 70): 167, 227, 318 % of control | survivor count (dose: 10.0 mg/kg/injection, schedule: Q04DX003 (ip), vehicle: saline): 10 of 10 | T/C [1]: 194 % of control | survivor count [1]: 7 of 10 and 10 of 10 (2×) | survivor count (dose: 32.0 mg/kg/injection, schedule: Q04DX002 (ip), vehicle: suspension in saline): 10 of 10 | survivor count [2]: 2 of 10, 7 of 10, 9 of 10, 10 of 10 | survivor count (dose: 400.0 mg/kg/injection, schedule: Q04DX003 (ip), vehicle: suspension in saline): 9 of 10

c1cc[c]([Sn][c]2ccccc2)cc1
T/C (dose: 10.0 mg/kg/injection, schedule: Q04DX003 (ip), vehicle: saline with Tween-80): 126 % of control [8 of 10 alive] | survivor count (dose: 20.0 mg/kg/injection, schedule: Q04DX003 (ip), vehicle: saline with Tween-80): 0 of 10 | survivor count [1]: 0 of 10

COc1cccc2c1C(=O)c1c(O)c3c(c(O)c1C2=O)C[C@@](O)(C(=O)COC(=O)c1cccnc1)C[C@@H]3OC1CC(N)C(O)C(C)O1 (stereo partly specified)
survivor count (dose: 39.0 mg/kg/injection, schedule: Q07DX002 (iv), vehicle: alkali diluted with saline): 4 of 10

COc1cc(NS(C)(=O)=O)ccc1Nc1c2ccccc2nc2ccccc12
T/C (dose: 2.0 mg/kg/injection, schedule: Q04DX002 (ip), vehicle: other): 132 % of control | T/C (dose: 4.0 mg/kg/injection, schedule: Q04DX003 (ip), vehicle: other): 136 % of control

Cc1c(N)nc([C@H](CC(N)=O)NC[C@H](N)C(N)=O)nc1C(=O)N[C@H](C(=O)N[C@H](C)[C@@H](O)[C@H](C)C(=O)N[C@H](C(=O)NCCc1nc(-c2nc(C(=O)NCCC[S+](C)C)cs2)cs1)[C@@H](C)O)C(OC1OC(CO)C(O)C(O)C1OC1OC(CO)C(O)C(OC(N)=O)C1O)c1cnc[nH]1 (stereo partly specified)
survivor count (dose: 32.0 mg/kg/injection, schedule: Q01DX009 (ip), vehicle: saline): 10 of 10

CN(C)CCCNc1c2ccccc2nc2cccc([N+](=O)[O-])c12
survivor count (dose: 0.7 mg/kg/injection, schedule: Q07DX002 (iv), vehicle: saline with Tween-80): 3 of 10

CC(=O)O[C@@H]1[C@@H](O)C2=C3[C@]4(C)[C@@H]1C(C)(C)C(=O)C[C@@H]4[C@]3(O)[C@H](OC(C)=O)[C@@]1(C[C@@H]1C)C2=O
T/C (dose: 12.5 mg/kg/injection, schedule: Q04DX003 (ip), vehicle: saline with Tween-80): 125 % of control | survivor count (dose: 100.0 mg/kg/injection, schedule: Q04DX003 (ip), vehicle: distilled water + Tween-80): 7 of 10 | survivor count (dose: 200.0 mg/kg/injection, schedule: Q04DX003 (ip), vehicle: distilled water + Tween-80): 2 of 10 | survivor count (dose: 200.0 mg/kg/injection, schedule: Q04DX003 (ip), vehicle: saline with Tween-80): 7 of 10

O=NN(CCCl)C(=O)NCCCl
T/C (dose: 2.0 mg/kg/injection, schedule: Q04DX003 (ip), vehicle: saline + alcohol): 125 % of control | survivor count (dose: 32.0 mg/kg/injection, schedule: Q04DX003 (ip), vehicle: saline + alcohol): 10 of 10

O=S(=O)(O)O
survivor count (dose: 100.0 mg/kg/injection, schedule: Q01DX009 (ip), vehicle: saline with Tween-80): 10 of 10

Clc1ccc(C2SC=Cc3ccccc32)cc1 (stereo unspecified)
survivor count (dose: 400.0 mg/kg/injection, schedule: Q04DX003 (ip), vehicle: Klucel (hydroxypropylcellulose) (HPC)): 0 of 10 | survivor count (dose: 1000.0 mg/kg/injection, schedule: Q04DX002 (ip), vehicle: Klucel (hydroxypropylcellulose) (HPC)): 0 of 10

COc1cc([C@@H]2c3cc4c(cc3[C@@H](OC3OC5COC(C)OC5C(O)C3O)[C@H]3COC(=O)[C@H]23)OCO4)cc(OC)c1O (stereo partly specified)
T/C (dose: 16.0 mg/kg/injection, schedule: Q04DX003 (ip), vehicle: saline): 144 % of control | survivor count (dose: 128.0 mg/kg/injection, schedule: Q04DX003 (ip), vehicle: saline): 0 of 10 | survivor count (dose: 256.0 mg/kg/injection, schedule: Q04DX003 (ip), vehicle: saline): 0 of 10 | survivor count (dose: 512.0 mg/kg/injection, schedule: Q04DX003 (ip), vehicle: saline): 0 of 10

Cc1cc(C)c(-c2cc(O)c(C)cc2O)c(C)c1
survivor count (dose: 400.0 mg/kg/injection, schedule: Q04DX003 (ip), vehicle: saline with Tween-80): 10 of 10

CCC1(O)CC2CN(CCc3c([nH]c4ccccc34)C(C(=O)OC)(c3cc4c(cc3OC)N(C)C3C(O)(C(N)=O)C(O)C5(CC)C=CCN6CCC43C65)C2)C1 (stereo unspecified) (tested in a mixture with another compound)
T/C (dose: 4.0 mg/kg/injection, schedule: Q04DX002 (ip), vehicle: water): 125 % of control

CCC(=O)O[C@H]1CC[C@H]2[C@@H]3CCC4=CC(=O)CC[C@]4(C)[C@H]3CC[C@]12C
T/C (dose: 40.0 mg/kg/injection, schedule: Q04DX003 (ip), vehicle: Klucel (hydroxypropylcellulose) (HPC), evaluated on day 60): 95 and 107 % of control | T/C (dose: 40.0 mg/kg/injection, schedule: Q04DX003 (ip), vehicle: Klucel (hydroxypropylcellulose) (HPC), evaluated on day 70): 95 and 101 % of control | survivor count [2]: 10 of 10 | T/C (dose: 80.0 mg/kg/injection, schedule: Q04DX003 (ip), vehicle: Klucel (hydroxypropylcellulose) (HPC), evaluated on day 60): 104 % of control | T/C (dose: 80.0 mg/kg/injection, schedule: Q04DX003 (ip), vehicle: Klucel (hydroxypropylcellulose) (HPC), evaluated on day 70): 96 and 102 % of control | survivor count (dose: 80.0 mg/kg/injection, schedule: Q04DX003 (ip), vehicle: Klucel (hydroxypropylcellulose) (HPC)): 10 of 10 | T/C (dose: 160.0 mg/kg/injection, schedule: Q04DX003 (ip), vehicle: Klucel (hydroxypropylcellulose) (HPC), evaluated on day 60): 101 % of control | T/C (dose: 160.0 mg/kg/injection, schedule: Q04DX003 (ip), vehicle: Klucel (hydroxypropylcellulose) (HPC), evaluated on day 70): 95 (2×) and 98 % of control | survivor count (dose: 160.0 mg/kg/injection, schedule: Q04DX003 (ip), vehicle: Klucel (hydroxypropylcellulose) (HPC)): 10 of 10 | T/C (dose: 320.0 mg/kg/injection, schedule: Q04DX003 (ip), vehicle: Klucel (hydroxypropylcellulose) (HPC), evaluated on day 60): 88 and 94 % of control | T/C (dose: 320.0 mg/kg/injection, schedule: Q04DX003 (ip), vehicle: Klucel (hydroxypropylcellulose) (HPC), evaluated on day 70): 92 and 98 % of control (2×) | survivor count (dose: 320.0 mg/kg/injection, schedule: Q04DX003 (ip), vehicle: saline): 10 of 10 | T/C (dose: 640.0 mg/kg/injection, schedule: Q04DX003 (ip), vehicle: Klucel (hydroxypropylcellulose) (HPC), evaluated on day 60): 101 % of control | T/C (dose: 640.0 mg/kg/injection, schedule: Q04DX003 (ip), vehicle: Klucel (hydroxypropylcellulose) (HPC), evaluated on day 70): 89 [9 of 10 alive], 94, 104 % of control | survivor count (dose: 640.0 mg/kg/injection, schedule: Q04DX003 (ip), vehicle: Klucel (hydroxypropylcellulose) (HPC)): 10 of 10 | survivor count (dose: 1280.0 mg/kg/injection, schedule: Q04DX003 (ip), vehicle: Klucel (hydroxypropylcellulose) (HPC)): 1 of 10

CC(=O)OC1C2(CC3N4C(=O)C5(CO)SSC4(CC31O)C(=O)N5C)OC(C)C(C)(C)C2=O (stereo unspecified)
survivor count (dose: 10.0 mg/kg/injection, schedule: Q04DX002 (ip), vehicle: saline): 0 of 10 | survivor count (dose: 20.0 mg/kg/injection, schedule: Q04DX002 (ip), vehicle: saline): 1 of 10

COC12[C@@H]3N[C@@H]3CN1C1=C(C(=O)C(NCCSSCCNC3=C(C)C(=O)C4=C(C3=O)C(COC(N)=O)[C@]3(OC)C5N[C@@H]5CN43)=C(C)C1=O)[C@@H]2COC(N)=O (stereo partly specified)
T/C (dose: 6.0 mg/kg/injection, schedule: Q03DX002 (ip), vehicle: other): 132 % of control | survivor count (dose: 12.0 mg/kg/injection, schedule: Q01DX005 (ip), vehicle: other): 8 of 8 on day 14
